Values from PubChem BioAssay AID1671195 (Yale University, 2021)
Screen: 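Genes whose knockdown alters LDL uptake in liver cancer cells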 (primary screen). Cells: human Huh7 hepatoma cells. Reagent: siRNA pool against human genes, 18 nM. Duration: about 2 to 2.5 days of knockdown, then 8 h LDL uptake. Conditions: DiI-labelled LDL at 30 µg/ml for 8 h, in lipoprotein-deficient serum medium. Detection: 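Fluorescent LDL signal imaged in cells, scaled to the plate median, robust z-score for each replicate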. Reading the numbers: robust z-score: higher = more LDL uptake after knockdown. Active means: 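a gene counts as active if at least two replicate z-scores exceed ±2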.
The whole screen tested about 22,000 reagents; shown is a part drawn at random. About 1,510 of them (6.9%) were called active. 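Active includes knockdowns raising or lowering LDL uptake; positive z-scores mean more uptake, negative mean less.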 Unmarked entries are inactive. The numbers tell different reagents against one gene apart.

| target | reagent | robust z-score, replicate 1 | robust z-score, replicate 2 | robust z-score, replicate 3 |
| --- | --- | --- | --- | --- |
| UGT2B10 | 1 | 0.358 | 0.149 | 0.56 |
| LOC441576 (retired record) | 1 | 0.384 | 0.0203 | 0.149 |
| SNX31 | 1 | 0.0854 | 0.436 | -0.399 |
| FAM114A1 | 1 | 0.337 | -0.227 | -0.436 |
| LINC00268 | 1 | 0.576 | 0.13 | 0.363 |
| EBNA1BP2 | 1 | -1.38 | 0.026 | -1.4 |
| PCCA | 1 | -1.66 | -0.749 | -0.402 |
| CCL2 | 1 | -1.58 | -1.52 | -1.06 |
| FAT1 | 1 | -1.35 | -1.43 | -1.05 |
| TMEM230 | 1 | -0.101 | -0.165 | 0.611 |
| ZDHHC24 | 1 | 2.13 (active) | 2.04 | 2.67 |
| COL6A3 | 1 | -1.69 | -1.59 | -1.36 |
| AQP1 | 1 | 0.4 | 0.503 | 0.115 |
| FOXD2 | 1 | 0.201 | 0.419 | 0.731 |
| REEP4 | 1 | 1.82 | 1.67 | 0.922 |
| MEFV | 1 | 0.381 | 1.23 | 0.537 |
| PRL | 1 | -0.663 | -0.337 | -0.796 |
| TM7SF3 | 1 | 0.0157 | -0.984 | 0.392 |
| UBE2E1 | 1 | 0.683 | 1.45 | 0.145 |
| H2AC21 | 1 | -0.52 | -0.636 | -0.563 |
| FBH1 | 1 | 1.09 | 1.03 | 1.45 |
| LOC387917 (retired record) | 1 | -0.268 | -0.104 | -0.223 |
| IGF2-AS | 1 | -0.157 | -0.356 | -0.243 |
| PCDHGB4 | 1 | -0.153 | 0.115 | -0.0999 |
| ABCA10 | 1 | -0.294 | 0.399 | 0.241 |
| SCN4B | 1 | 3.84 (active) | 3.95 | 3.08 |
| FLJ39095 | 1 | -0.136 | -0.418 | -0.615 |
| CYC1 | 1 | -0.446 | 0.147 | -0.883 |
| DCAF8L1 | 1 | -0.992 | -1.2 | -0.256 |
| CISD3 | 1 | -1.4 | -1.57 | -1.68 |
| ZNF692 | 1 | -0.551 | -0.494 | 0.196 |
| TNIK | 1 | -0.795 | -0.668 | -0.874 |
| GLCE | 1 | -0.0622 | 0.654 | -0.792 |
| SEMA4D | 1 | 0.53 | 0.12 | 1.14 |
| SEMA4D | 2 | 0.413 | 0.208 | 0.283 |
| LRATD1 | 1 | 0.452 | -0.284 | 0.719 |

Continued (4 carried over from the part before).
| target | reagent | robust z-score, replicate 1 | robust z-score, replicate 2 | robust z-score, replicate 3 |
| --- | --- | --- | --- | --- |
| GLCE | 1 | -0.0622 | 0.654 | -0.792 |
| SEMA4D | 1 | 0.53 | 0.12 | 1.14 |
| SEMA4D | 2 | 0.413 | 0.208 | 0.283 |
| LRATD1 | 1 | 0.452 | -0.284 | 0.719 |
| CDCA5 | 1 | 1.49 (active) | 2.28 | 2.32 |
| CDCA5 | 2 | -0.684 | -0.682 | -0.958 |
| FBXO39 | 1 | 1.08 | 3.08 | 1.45 |
| FOLR1 | 1 | 1.28 | 0.884 | 1.15 |
| LOC387942 (retired record) | 1 | 2.17 (active) | 1.97 | 2.16 |
| HSFX1 | 1 | 2.45 (active) | 1.54 | 2.03 |
| LOC440090 (retired record) | 1 | -0.903 | -0.535 | -0.193 |
| TBX15 | 1 | -0.535 | -0.211 | -0.363 |
| MTMR1 | 1 | 0.303 | 0.327 | 0.477 |
| OR4D6 | 1 | -0.347 | -0.556 | -0.551 |
| NAT2 | 1 | -0.548 | -0.718 | -0.108 |
| MRPS31 | 1 | -0.778 | -2.13 | -0.0943 |
| HLA-E | 1 | -0.234 | -0.0639 | -0.0189 |
| MORN1 | 1 | -0.768 | -0.734 | -0.958 |
| ICAM4 | 1 | 0.868 | 0.276 | -0.482 |
| IFNK | 1 | 2.06 | 0.718 | 2 |
| TXK | 1 | -0.0542 | 0.0347 | -0.261 |
| FBXW10B | 1 | -0.897 | -0.811 | -1.14 |
| LOC440203 (retired record) | 1 | 1.86 | 1.41 | 1.62 |
| FHOD3 | 1 | -0.00138 | -0.14 | -0.28 |
| MUS81 | 1 | -0.0931 | -0.433 | -0.666 |
| RFPL3 | 1 | 0.28 | -0.176 | 0.694 |
| PLEKHG5 | 1 | -1.66 | -1.77 | -1.7 |
| HLA-DQB1 | 1 | -1.69 | -0.797 | -1.4 |
| CDKN2D | 1 | -0.093 | 0.612 | -0.156 |
| DEXI | 1 | -3.23 (active) | -2.06 | -3.42 |
| RMDN3 | 1 | -1.96 | 0.0792 | -0.374 |
| CYP3A43 | 1 | 1.2 | 1.28 | 2.28 |
| CYP24A1 | 1 | -0.359 | -0.326 | 0.227 |
| ACSM3 | 1 | 0.444 | 0.183 | 0.549 |
| INO80B | 1 | -1.12 | -1.51 | -1.27 |
| SHOC2 | 1 | 0.874 | 0.806 | 1.31 |
